The test addresses Flag-tagged xCT (solute carrier family 7 member 11, SLC7A11) (human) (UniProt Q9UPY5). The experiment in a line: co-IP; HEK293T cells (1 x 10^6) transfected with Myc-USP52 and Flag-xCT plasmids (wild type or truncations) for 48 h; lysate in IP binding buffer; Myc-IP or Flag-IP overnight at 4 °C, protein A/G magnetic beads; Western blot.

Chains of the proteins cited; added tags and fusions are not shown.
UniProt Q9UPY5: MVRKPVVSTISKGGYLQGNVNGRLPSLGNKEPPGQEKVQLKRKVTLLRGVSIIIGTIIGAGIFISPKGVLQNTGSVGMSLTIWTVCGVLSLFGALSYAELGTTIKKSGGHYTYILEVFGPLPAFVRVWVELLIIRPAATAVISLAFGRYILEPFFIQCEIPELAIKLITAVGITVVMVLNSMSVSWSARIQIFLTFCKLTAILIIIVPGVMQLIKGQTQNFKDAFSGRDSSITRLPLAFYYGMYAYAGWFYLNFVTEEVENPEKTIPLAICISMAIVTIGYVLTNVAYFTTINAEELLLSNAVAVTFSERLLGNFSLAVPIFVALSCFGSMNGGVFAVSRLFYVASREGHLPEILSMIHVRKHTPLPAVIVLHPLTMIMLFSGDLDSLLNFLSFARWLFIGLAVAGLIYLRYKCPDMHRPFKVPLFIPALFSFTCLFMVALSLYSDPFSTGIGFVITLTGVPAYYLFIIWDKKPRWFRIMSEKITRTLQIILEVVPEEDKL

No constants are given. Whether binding was seen depends on the method and setting. In cells and extracts the contact can be indirect. Some entries that bind do so weakly or less than the wild type. Sequences can lack the tags named with a protein.

This passage reports binding results from article PMC11615784.

B1: Myc-tagged USP52 (ubiquitin-specific peptidase 52 / poly(A) specific ribonuclease subunit 2) (enzyme, UniProt Q504Q3 1-1202)
chain: MNFEGLDPGLAEYAPAMHSALDPVLDAHLNPSLLQNVELDPEGVALEALPVQESVHIMEGVYSELHSVVAEVGVPVSVSHFDLHEEMLWVGSHGGHATSFFGPALERYSSFQVNGSDDIRQIQSLENGILFLTKNNLKYMARGGLIIFDYLLDENEDMHSLLLTDSSTLLVGGLQNHIIEIDLNTVQETQKYAVETPGVTIMRQTNRFFFCGHTSGKVSLRDLRTFKVEHEFDAFSGSLSDFDVHGNLLAACGFSSRLTGLACDRFLKVYDLRMMRAITPLQVHVDPAFLRFIPTYTSRLAIISQSGQCQFCEPTGLANPADIFHVNPVGPLLMTFDVSASKQALAFGDSEGCVHLWTDSPEPSFNPYSRETEFALPCLVDSLPPLDWSQDLLPLSLIPVPLTTDTLLSDWPAANSAPAPRRAPPVDAEILRTMKKVGFIGYAPNPRTRLRNQIPYRLKESDSEFDSFSQVTESPVGREEEPHLHMVSKKYRKVTIKYSKLGLEDFDFKHYNKTLFAGLEPHIPNAYCNCMIQVLYFLEPVRCLIQNHLCQKEFCLACELGFLFHMLDLSRGDPCQGNNFLRAFRTIPEASALGLILADSDEASGKGNLARLIQRWNRFILTQLHQDMQELEIPQAYRGAGGSSFCSSGDSVIGQLFSCEMENCSLCRCGSETVRASSTLLFTLSYPDGSKSDKTGKNYDFAQVLKRSICLDQNTQAWCDTCEKYQPTIQTRNIRHLPDILVINCEVNSSKEADFWRMQAEVAFKMAVKKHGGEISKNKEFALADWKELGSPEGVLVCPSIEELKNVWLPFSIRMKMTKNKGLDVCNWTDGDEMQWGPARAEEEHGVYVYDLMATVVHILDSRTGGSLVAHIKVGETYHQRKEGVTHQQWYLFNDFLIEPIDKHEAVQFDMNWKVPAILYYVKRNLNSRYNLNIKNPIEASVLLAEASLARKQRKTHTTFIPLMLNEMPQIGDLVGLDAEFVTLNEEEAELRSDGTKSTIKPSQMSVARITCVRGQGPNEGIPFIDDYISTQEQVVDYLTQYSGIKPGDLDAKISSKHLTTLKSTYLKLRFLIDIGVKFVGHGLQKDFRVINLMVPKDQVLDTVYLFHMPRKRMISLRFLAWYFLDLKIQGETHDSIEDARTALQLYRKYLELSKNGTEPESFHKVLKGLYEKGRKMDWKVPEPEGQTSPKNAAVFSSVLAL
B1: the binding result was “binds”.
